PubChem BioAssay AID1508597 | Cure First – 2020

Screen: 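Survival screen with siRNA in ovarian cancer cells derived from patients, with or without rucaparib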 (primary screen)
Cell system: human ovarian carcinoma lines grown from tumours: OCI-P5x (papillary serous) and OCI-C5x (clear cell)
Reagents: siRNA pool against human genes, 1.25 pmol siRNA per well
Timing: 72 h or 96 h, depending on the cell culture
Challenge: rucaparib 20 µM (about IC30) or vehicle, present until read-out
Rucaparib or vehicle: Rucaparib
Cell line: OCI-P5x (serous)
Detection: 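ATP luminescence measured at 72 or 96 h according to the culture, then normalised and expressed as percent viability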
Scale: viability, normalised: higher = more viable cells remaining
Active means: 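Active when normalised viability falls below 80 percent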
Meaning of the calls: active = viability under 80%; inactive = viability 80% or more
This is an unselected part of the about 2,100 reagents, under one of the conditions tested. 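Calls flag viability under 80% in either arm, not effects specific to rucaparib; the reference for percent is not stated.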 Unmarked entries are inactive. A reagent listed more than once was tested more than once; the source does not tell the runs apart. Not stated in the record: the 100% reference.

ETF1, technical replicate 1
- viability, normalised (%): 64.9 (active)

ETF1, technical replicate 2
- viability, normalised (%): 48.8 (active)

ETF1, technical replicate 3
- viability, normalised (%): 47.4 (active)

MBD4, technical replicate 1
- viability, normalised (%): 55.8 (active)

MBD4, technical replicate 1
- viability, normalised (%): 68.1 (active)

MBD4, technical replicate 2
- viability, normalised (%): 86.3

MBD4, technical replicate 2
- viability, normalised (%): 54.8 (active)

MBD4, technical replicate 3
- viability, normalised (%): 73.5 (active)

MBD4, technical replicate 3
- viability, normalised (%): 56.2 (active)

RCOR2, technical replicate 1
- viability, normalised (%): 62 (active)

RCOR2, technical replicate 2
- viability, normalised (%): 52.1 (active)

RCOR2, technical replicate 3
- viability, normalised (%): 60.9 (active)

STKLD1, technical replicate 1
- viability, normalised (%): 113

STKLD1, technical replicate 2
- viability, normalised (%): 98.7

STKLD1, technical replicate 3
- viability, normalised (%): 83.1

PLK2, technical replicate 1
- viability, normalised (%): 81.7

PLK2, technical replicate 2
- viability, normalised (%): 95.3

PLK2, technical replicate 3
- viability, normalised (%): 78.5 (active)

MBD2, technical replicate 1
- viability, normalised (%): 57.4 (active)

MBD2, technical replicate 2
- viability, normalised (%): 67 (active)

MBD2, technical replicate 3
- viability, normalised (%): 79 (active)

Entries above whose target name begins with P or p:
PLK2, technical replicate 1
- viability, normalised (%): 81.7

PLK2, technical replicate 2
- viability, normalised (%): 95.3

PLK2, technical replicate 3
- viability, normalised (%): 78.5 (active)
